Measurements from the supplement of paper PMC10849652.
The list shows a part of the results.

By UniProt entry, the sequences of proteins in these tests, tags left out. Where a name states a change or a piece, a line headed by the entry shows the natural chain unless it says otherwise.
UniProt A6NNZ2, whole entry, looked up: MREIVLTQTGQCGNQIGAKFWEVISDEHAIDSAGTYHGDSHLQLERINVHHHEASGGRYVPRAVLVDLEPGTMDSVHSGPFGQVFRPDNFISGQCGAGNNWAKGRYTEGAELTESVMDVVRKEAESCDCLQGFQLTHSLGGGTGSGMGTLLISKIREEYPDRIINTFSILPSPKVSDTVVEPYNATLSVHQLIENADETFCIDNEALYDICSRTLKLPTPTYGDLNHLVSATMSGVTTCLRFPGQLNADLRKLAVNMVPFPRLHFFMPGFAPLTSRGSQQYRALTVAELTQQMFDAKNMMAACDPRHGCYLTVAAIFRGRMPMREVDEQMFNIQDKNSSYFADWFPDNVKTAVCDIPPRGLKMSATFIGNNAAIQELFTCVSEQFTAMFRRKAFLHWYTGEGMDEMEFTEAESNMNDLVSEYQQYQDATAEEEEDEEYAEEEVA
UniProt Q9UGJ1, whole entry, looked up: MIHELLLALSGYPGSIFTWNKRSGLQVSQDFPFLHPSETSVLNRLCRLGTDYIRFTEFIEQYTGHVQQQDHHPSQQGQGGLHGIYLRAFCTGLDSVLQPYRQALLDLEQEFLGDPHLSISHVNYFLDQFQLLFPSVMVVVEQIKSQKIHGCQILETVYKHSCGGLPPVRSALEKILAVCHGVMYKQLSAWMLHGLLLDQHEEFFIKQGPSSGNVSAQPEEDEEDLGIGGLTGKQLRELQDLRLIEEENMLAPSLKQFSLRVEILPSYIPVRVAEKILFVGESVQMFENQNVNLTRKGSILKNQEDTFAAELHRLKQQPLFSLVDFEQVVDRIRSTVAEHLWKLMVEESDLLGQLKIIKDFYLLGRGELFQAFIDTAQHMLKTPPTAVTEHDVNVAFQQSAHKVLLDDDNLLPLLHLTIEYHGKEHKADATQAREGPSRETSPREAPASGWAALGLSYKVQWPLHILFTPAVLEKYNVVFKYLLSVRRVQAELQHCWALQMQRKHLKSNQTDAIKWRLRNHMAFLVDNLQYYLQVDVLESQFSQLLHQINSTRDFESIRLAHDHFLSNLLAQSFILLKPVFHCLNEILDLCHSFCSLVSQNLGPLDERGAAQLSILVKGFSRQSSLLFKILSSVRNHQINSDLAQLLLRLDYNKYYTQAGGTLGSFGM
UniProt Q9BVA1, whole entry, looked up: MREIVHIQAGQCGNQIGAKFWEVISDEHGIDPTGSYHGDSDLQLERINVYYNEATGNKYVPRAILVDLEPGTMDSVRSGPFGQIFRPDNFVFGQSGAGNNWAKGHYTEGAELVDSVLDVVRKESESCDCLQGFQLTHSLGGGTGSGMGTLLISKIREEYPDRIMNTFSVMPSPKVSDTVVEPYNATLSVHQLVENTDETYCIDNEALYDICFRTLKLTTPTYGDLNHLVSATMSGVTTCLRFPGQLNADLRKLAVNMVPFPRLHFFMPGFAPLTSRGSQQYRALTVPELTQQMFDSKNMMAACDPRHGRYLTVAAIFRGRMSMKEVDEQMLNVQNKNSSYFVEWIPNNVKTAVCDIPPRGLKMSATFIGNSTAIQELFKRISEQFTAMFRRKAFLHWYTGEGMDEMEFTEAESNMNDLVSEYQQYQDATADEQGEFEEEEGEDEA
UniProt Q3ZCM7, whole entry, looked up: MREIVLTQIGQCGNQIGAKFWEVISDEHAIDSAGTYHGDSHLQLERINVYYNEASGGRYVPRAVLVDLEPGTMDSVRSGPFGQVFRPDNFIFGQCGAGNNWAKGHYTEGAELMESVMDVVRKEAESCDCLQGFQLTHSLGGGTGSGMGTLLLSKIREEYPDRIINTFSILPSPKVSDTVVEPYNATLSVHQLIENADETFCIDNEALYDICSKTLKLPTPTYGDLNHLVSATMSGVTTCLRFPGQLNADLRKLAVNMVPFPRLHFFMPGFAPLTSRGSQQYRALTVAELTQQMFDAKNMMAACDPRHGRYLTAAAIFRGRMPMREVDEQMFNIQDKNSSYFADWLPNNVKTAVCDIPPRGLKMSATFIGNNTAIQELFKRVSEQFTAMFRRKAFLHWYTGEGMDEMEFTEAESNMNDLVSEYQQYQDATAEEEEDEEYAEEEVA
UniProt Q9H892: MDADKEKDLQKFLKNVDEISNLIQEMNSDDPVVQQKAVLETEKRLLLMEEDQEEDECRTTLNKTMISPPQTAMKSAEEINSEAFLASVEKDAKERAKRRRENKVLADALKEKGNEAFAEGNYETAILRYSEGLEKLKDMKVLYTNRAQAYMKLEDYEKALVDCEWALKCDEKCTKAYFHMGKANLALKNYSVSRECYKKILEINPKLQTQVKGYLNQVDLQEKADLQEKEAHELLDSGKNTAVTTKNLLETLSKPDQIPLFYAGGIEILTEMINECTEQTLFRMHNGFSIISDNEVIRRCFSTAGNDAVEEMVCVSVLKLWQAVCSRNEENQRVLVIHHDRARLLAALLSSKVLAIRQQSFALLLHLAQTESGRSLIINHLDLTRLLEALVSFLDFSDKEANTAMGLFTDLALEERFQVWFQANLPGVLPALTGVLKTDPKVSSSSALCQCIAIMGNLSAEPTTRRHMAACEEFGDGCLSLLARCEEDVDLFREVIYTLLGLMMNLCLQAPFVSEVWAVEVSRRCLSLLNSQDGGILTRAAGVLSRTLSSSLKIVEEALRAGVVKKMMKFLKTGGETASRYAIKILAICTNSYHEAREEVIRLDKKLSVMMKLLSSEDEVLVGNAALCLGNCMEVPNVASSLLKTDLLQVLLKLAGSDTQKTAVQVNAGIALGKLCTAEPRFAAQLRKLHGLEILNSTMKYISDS
UniProt O95857: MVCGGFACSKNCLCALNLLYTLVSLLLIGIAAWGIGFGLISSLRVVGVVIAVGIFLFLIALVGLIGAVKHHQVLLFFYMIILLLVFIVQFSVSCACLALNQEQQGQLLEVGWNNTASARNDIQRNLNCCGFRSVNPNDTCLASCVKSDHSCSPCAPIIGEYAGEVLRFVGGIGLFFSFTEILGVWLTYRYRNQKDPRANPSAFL
UniProt Q7Z4L5: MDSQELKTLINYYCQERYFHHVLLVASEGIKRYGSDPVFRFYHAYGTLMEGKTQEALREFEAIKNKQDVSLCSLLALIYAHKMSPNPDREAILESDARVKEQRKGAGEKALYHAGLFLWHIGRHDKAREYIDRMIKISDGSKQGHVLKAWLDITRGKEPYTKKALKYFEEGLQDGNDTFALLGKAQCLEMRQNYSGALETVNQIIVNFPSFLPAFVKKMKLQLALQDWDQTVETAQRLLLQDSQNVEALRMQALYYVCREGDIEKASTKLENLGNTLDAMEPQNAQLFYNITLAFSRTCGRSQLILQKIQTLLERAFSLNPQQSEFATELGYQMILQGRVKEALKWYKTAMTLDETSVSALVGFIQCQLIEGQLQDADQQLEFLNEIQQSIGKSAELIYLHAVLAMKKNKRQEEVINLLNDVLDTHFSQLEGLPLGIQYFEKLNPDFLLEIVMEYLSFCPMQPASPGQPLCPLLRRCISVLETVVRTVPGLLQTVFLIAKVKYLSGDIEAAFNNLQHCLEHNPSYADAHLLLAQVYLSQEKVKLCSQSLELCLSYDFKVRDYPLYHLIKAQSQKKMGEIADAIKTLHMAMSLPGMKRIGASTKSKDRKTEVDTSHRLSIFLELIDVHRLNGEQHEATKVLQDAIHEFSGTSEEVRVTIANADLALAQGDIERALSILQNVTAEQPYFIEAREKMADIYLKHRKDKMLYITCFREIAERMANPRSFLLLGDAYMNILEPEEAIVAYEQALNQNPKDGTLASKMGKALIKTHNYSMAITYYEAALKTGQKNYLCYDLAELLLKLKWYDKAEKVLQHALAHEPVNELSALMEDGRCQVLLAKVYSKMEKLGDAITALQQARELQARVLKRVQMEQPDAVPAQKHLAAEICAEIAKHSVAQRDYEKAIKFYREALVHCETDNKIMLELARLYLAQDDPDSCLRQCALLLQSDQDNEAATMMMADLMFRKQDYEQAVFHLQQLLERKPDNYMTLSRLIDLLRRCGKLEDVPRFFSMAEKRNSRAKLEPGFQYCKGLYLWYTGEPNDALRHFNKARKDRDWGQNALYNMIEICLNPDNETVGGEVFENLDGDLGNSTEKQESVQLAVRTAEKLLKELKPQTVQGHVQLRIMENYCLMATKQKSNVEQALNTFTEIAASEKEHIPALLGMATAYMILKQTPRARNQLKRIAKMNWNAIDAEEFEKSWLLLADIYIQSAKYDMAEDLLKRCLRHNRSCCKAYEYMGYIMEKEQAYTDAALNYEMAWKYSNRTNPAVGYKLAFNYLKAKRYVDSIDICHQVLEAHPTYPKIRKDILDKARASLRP
UniProt O75896: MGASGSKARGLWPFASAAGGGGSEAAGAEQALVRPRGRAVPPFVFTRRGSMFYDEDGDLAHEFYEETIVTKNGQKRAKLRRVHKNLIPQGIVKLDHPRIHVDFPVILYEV
UniProt O14817: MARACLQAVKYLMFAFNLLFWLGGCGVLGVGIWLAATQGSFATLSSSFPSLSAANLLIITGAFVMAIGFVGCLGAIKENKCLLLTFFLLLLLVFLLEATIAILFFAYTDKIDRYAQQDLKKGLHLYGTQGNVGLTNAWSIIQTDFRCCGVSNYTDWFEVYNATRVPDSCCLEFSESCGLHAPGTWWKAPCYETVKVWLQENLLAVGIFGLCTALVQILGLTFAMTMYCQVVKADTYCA
UniProt Q96RT7, whole entry, looked up: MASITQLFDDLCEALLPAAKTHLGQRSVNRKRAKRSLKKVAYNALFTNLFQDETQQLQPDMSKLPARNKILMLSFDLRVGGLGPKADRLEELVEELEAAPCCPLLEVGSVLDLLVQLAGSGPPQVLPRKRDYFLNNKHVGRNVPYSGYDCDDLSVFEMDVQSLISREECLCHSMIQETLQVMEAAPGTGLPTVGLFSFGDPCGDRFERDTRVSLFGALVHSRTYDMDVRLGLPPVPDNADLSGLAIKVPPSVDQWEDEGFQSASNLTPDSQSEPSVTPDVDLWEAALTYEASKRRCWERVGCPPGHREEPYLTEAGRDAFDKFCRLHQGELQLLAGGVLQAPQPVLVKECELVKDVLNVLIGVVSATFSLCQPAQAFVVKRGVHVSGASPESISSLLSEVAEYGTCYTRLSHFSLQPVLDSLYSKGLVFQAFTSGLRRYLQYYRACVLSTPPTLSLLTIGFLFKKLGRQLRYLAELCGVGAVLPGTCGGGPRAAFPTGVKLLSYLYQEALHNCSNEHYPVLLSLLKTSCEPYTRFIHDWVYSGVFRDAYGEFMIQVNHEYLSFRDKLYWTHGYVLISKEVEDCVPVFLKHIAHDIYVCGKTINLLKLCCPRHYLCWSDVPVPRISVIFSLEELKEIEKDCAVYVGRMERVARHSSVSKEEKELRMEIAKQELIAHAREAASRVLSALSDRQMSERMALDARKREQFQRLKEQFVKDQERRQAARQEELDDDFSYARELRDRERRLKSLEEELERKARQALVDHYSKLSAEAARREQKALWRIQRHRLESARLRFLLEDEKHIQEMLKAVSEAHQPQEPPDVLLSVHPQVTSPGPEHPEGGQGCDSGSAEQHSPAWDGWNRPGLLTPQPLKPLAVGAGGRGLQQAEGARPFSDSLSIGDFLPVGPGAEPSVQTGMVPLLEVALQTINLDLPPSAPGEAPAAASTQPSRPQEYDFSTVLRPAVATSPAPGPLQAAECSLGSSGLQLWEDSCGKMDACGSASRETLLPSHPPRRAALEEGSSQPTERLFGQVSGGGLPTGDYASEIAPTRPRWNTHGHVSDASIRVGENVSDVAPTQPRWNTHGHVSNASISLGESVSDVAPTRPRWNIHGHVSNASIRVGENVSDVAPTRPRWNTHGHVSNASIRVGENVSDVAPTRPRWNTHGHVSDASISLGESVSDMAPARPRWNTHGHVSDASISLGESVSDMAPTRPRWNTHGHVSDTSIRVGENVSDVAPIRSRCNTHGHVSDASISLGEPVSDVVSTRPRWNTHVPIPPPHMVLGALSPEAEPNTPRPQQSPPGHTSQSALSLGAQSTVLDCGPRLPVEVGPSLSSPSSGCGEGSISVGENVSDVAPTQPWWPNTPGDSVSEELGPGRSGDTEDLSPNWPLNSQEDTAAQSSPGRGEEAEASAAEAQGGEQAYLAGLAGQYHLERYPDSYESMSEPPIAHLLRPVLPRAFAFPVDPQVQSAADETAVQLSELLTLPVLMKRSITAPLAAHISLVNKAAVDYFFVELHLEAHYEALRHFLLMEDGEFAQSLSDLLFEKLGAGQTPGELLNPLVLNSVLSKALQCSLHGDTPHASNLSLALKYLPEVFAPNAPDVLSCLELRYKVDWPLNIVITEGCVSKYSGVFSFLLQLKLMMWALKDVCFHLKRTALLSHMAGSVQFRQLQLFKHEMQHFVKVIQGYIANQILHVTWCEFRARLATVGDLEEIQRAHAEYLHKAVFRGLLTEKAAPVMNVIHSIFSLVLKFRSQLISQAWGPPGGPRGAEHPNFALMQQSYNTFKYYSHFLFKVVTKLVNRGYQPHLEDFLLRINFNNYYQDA

Columns and labels:
Experiment in all cases: log2 fold change, soluble protein after heating vs DMSO (PISA); higher = thermal stabilisation; K562 cells, 10 uM, 30 min; active = over 0.2 and 3.5 SD of the protein, either way, in both replicates (recomputed)
[1] = compound: CC1=C(C=C(C=C1)NC(=O)C2=CC(=CC=C2)C(C)(C)C#N)NC3=CC4=C(C=C3)N=CN(C4=O)C
How it was run: (§1)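 K562 cells at 2×10^6 cells/mL were treated with 10 μM compound for 30 min. Aliquots were heated for 3 min across 48°C-58°C, pooled, and extracted in PBS with 0.5% NP-40 at 4°C; soluble protein was the supernatant after 21,000xg for 90 min. Soluble protein was quantified by TMTpro 16plex LC-MS/MS with channel sums equalised, and reported as log2 fold change in thermal stability against DMSO controls, with values from duplicates.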

[2] = compound: CC1=C(C=C(C=C1)NC(=O)C2=CC(=CC=C2)N(C)C)NC(=O)C3=CC=C(C=C3)O
How it was run: as §1

[3] = compound: CC1=NC(=CC=C1)C2=C(N=C(N2)C(C)(C)C)C3=CC4=NC=CN=C4C=C3
How it was run: as §1

Nexturastat A = compound: CCCCN(Cc1ccc(C(=O)NO)cc1)C(=O)Nc1ccccc1 [Nexturastat A]
How it was run: as §1

vemurafenib = compound: CCCS(=O)(=O)Nc1ccc(F)c(C(=O)c2c[nH]c3ncc(-c4ccc(Cl)cc4)cc23)c1F [vemurafenib]
How it was run: as §1

[4] = compound: CCCc1cc(C)[nH]c(=O)c1CNC(=O)c1cc(-c2ccnc(N3CCN(C)CC3)c2)cc2c1cnn2C(C)C
How it was run: as §1

givinostat = compound: CCN(CC)Cc1ccc2cc(COC(=O)Nc3ccc(C(=O)NO)cc3)ccc2c1 [givinostat]
How it was run: as §1

barasertib = compound: CCN(CCCOc1ccc2c(Nc3cc(CC(=O)Nc4cccc(F)c4)[nH]n3)ncnc2c1)CCOP(=O)(O)O [barasertib]
How it was run: as §1

[5] = compound: CC[C@@H]1C(=O)N(C)c2cnc(Nc3ccc(C(=O)NC4CCN(C)CC4)cc3OC)nc2N1C1CCCC1
How it was run: as §1

[6] = compound: CC[C@H](C)N1C=C(C2=C(C=C(C=C21)C3=CN=C(C=C3)N4CCNCC4)C(=O)NCC5=C(C=C(NC5=O)C)C)C
How it was run: as §1

epoxomicin = compound: CC[C@H](C)[C@@H](C(=O)N[C@@H]([C@@H](C)O)C(=O)N[C@@H](CC(C)C)C(=O)[C@]1(CO1)C)NC(=O)[C@H]([C@@H](C)CC)N(C)C(=O)C [epoxomicin]
How it was run: as §1

[7] = compound: CCn1c(C(=O)N(C2CC2)C2CC2)cc2c3c(ncn3C)c(Nc3cc(C)n(C)n3)nc21
How it was run: as §1

[8] = compound: CN(C)CC(=O)Nc1ccc2[nH]c(=O)c3ccccc3c2c1
How it was run: as §1

rosiglitazone = compound: CN(CCOC1=CC=C(C=C1)C[C@H]2C(=O)NC(=O)S2)C3=CC=CC=N3 (racemic) [rosiglitazone]
How it was run: as §1

[9] = compound: CC1=CC=C(C=C1)SC2=C3C=C(SC3=CN=C2)C(=O)N
How it was run: as §1

[10] = compound: CCCS(=O)(=O)Nc1ccc(F)c(C(=O)c2c[nH]c3ncc(Cl)cc23)c1F
How it was run: as §1

volasertib = compound: CC[C@@H]1C(=O)N(C)c2cnc(Nc3ccc(C(=O)N[C@H]4CC[C@H](N5CCN(CC6CC6)CC5)CC4)cc3OC)nc2N1C(C)C [volasertib]
How it was run: as §1

[11] = compound: CCn1cc(-c2ccnc3[nH]c(-c4cccc(CN(C)C)c4)cc23)c(-c2ccc(NC(=O)N(C)C)cc2)n1
How it was run: as §1

[12] = compound: CN1C2=C(C3=C1C(=O)N(N=C3)CC4=CC(=CC=C4)N)SC(=C2)S(=O)C
How it was run: as §1

[13] = compound: CN1CCC(CNc2ccc3ncc(-c4cccc(OC(F)(F)F)c4)n3n2)CC1
How it was run: as §1

| Target | log2 fold change [1] | log2 fold change [2] | log2 fold change [3] | log2 fold change (Nexturastat A) | log2 fold change (vemurafenib) | log2 fold change [4] | log2 fold change (givinostat) | log2 fold change (barasertib) | log2 fold change [5] | log2 fold change [6] | log2 fold change (epoxomicin) | log2 fold change [7] | log2 fold change [8] | log2 fold change (rosiglitazone) | log2 fold change [9] | log2 fold change [10] | log2 fold change (volasertib) | log2 fold change [11] | log2 fold change [12] | log2 fold change [13] |
| --- | --- | --- | --- | --- | --- | --- | --- | --- | --- | --- | --- | --- | --- | --- | --- | --- | --- | --- | --- | --- |
| TUBB8B (UniProt A6NNZ2) | inactive: -0.013 | inactive: 0.047 | inactive: 0.04 | inactive: -0.085 | inactive: 0.053 | inactive: 0.017 | inactive: -0.115 | inactive: -0.046 | inactive: -0.012 | inactive: 0.027 | inactive: 0.018 | inactive: -0.09 | inactive: 0.085 | inactive: 0.036 | – | – | – | – | – | – |
| TUBGCP3 (UniProt Q96CW5) | inactive: 0.011 | inactive: -0.118 | inactive: 0.006 | inactive: 0.067 | inactive: -0.027 | inactive: -0.067 | inactive: 0.156 | inactive: 0.198 | – | inactive: -0.202 | inactive: -0.144 | inactive: -0.208 | inactive: -0.018 | inactive: -0.066 | inactive: 0.092 | inactive: -0.024 | inactive: -0.171 | inactive: -0.006 | inactive: 0.158 | inactive: 0 |
| TUBGCP4 (UniProt Q9UGJ1) | inactive: -0.211 | inactive: -0.036 | inactive: -0.013 | – | – | – | inactive: 0.165 | inactive: -0.158 | inactive: 0.123 | – | – | inactive: -0.005 | – | inactive: -0.034 | inactive: -0.002 | inactive: 0.149 | inactive: -0.071 | – | inactive: 0.139 | – |
| TSPAN3 (UniProt O60637) | inactive: -0.048 | inactive: -0.028 | inactive: 0.064 | – | inactive: 0.01 | inactive: -0.275 | inactive: 0.09 | inactive: -0.003 | inactive: 0.006 | inactive: -0.055 | – | inactive: 0.048 | inactive: -0.032 | inactive: -0.027 | inactive: -0.071 | inactive: -0.135 | inactive: 0.116 | – | inactive: 0.072 | – |
| TTC38 (UniProt Q5R3I4) | inactive: -0.039 | inactive: 0.405 | inactive: 0.019 | active: 1.05 | inactive: 0.031 | inactive: 0.141 | active: 0.938 | inactive: 0.023 | inactive: 0.076 | inactive: 0.041 | inactive: 0.012 | – | inactive: 0.136 | – | inactive: 0.127 | inactive: 0.012 | inactive: 0.253 | inactive: -0.05 | inactive: -0.049 | inactive: -0.039 |
| TXNDC16 (UniProt Q9P2K2) | inactive: -0.067 | inactive: 0.018 | inactive: -0.086 | inactive: 0.053 | inactive: 0.027 | inactive: 0.05 | inactive: -0.03 | – | inactive: 0 | inactive: 0.001 | inactive: -0.075 | inactive: -0.021 | inactive: 0.02 | – | inactive: -0.074 | inactive: 0.091 | inactive: -0.067 | inactive: -0.07 | inactive: 0.067 | inactive: 0.123 |
| TUBB2B (UniProt Q9BVA1) | inactive: 0.009 | inactive: 0.036 | inactive: 0.068 | – | inactive: -0.01 | – | inactive: 0.102 | inactive: 0.033 | inactive: 0.044 | inactive: 0.056 | – | inactive: -0.025 | inactive: -0.073 | inactive: 0.042 | inactive: -0.08 | inactive: -0.187 | inactive: 0.023 | inactive: -0.047 | inactive: -0.268 | inactive: 0.057 |
| TUBB8 (UniProt Q3ZCM7) | inactive: -0.145 | inactive: 0.067 | inactive: -0.038 | – | – | – | inactive: 0.059 | – | – | inactive: 0.082 | – | inactive: -0.097 | – | – | – | – | – | – | inactive: -0.177 | – |
| TTC12 isoform 2 (UniProt Q9H892) | inactive: -0.095 | inactive: 0.06 | inactive: -0.279 | inactive: 0.311 | – | inactive: -0.171 | inactive: -0.007 | inactive: -0.065 | inactive: 0.408 | inactive: -0.146 | inactive: -0.276 | inactive: 0.028 | – | inactive: -0.115 | – | – | – | – | inactive: 0.258 | – |
| TSPAN13 (UniProt O95857) | inactive: 0.111 | inactive: -0.078 | – | inactive: -0.061 | inactive: 0.103 | inactive: -0.113 | inactive: -0.063 | inactive: -0.041 | – | inactive: -0.083 | inactive: -0.148 | – | active: 0.512 | – | inactive: 0.161 | inactive: -0.08 | inactive: 0.098 | inactive: -0.098 | inactive: -0.036 | inactive: -0.003 |
| TTC21B (UniProt Q7Z4L5) | – | – | – | – | – | – | – | – | – | – | – | – | – | – | inactive: -0.117 | inactive: -0.2 | inactive: 0.149 | – | inactive: 0.059 | – |
| TUSC2 (UniProt O75896) | inactive: -0.009 | – | inactive: -0.021 | inactive: -0.107 | – | inactive: -0.367 | inactive: 0.034 | inactive: -0.021 | – | inactive: -0.056 | inactive: 0.21 | inactive: 0.002 | – | inactive: 0.019 | – | – | – | – | – | – |
| TSPAN4 (UniProt O14817) | – | inactive: -0.071 | – | – | – | inactive: -0.011 | inactive: 0.06 | inactive: 0.231 | inactive: 0.288 | – | – | inactive: -0.013 | – | inactive: -0.009 | – | – | – | – | – | – |
| TUBGCP6 (UniProt Q96RT7) | – | – | inactive: 0.044 | – | – | – | – | – | – | – | – | – | – | – | – | – | – | – | – | – |
| U2AF1L5 (UniProt P0DN76) | – | – | inactive: -0.036 | – | inactive: 0.019 | inactive: 0.06 | inactive: 0.563 | inactive: -0.127 | inactive: -0.289 | inactive: 0.045 | – | – | inactive: 0.138 | – | – | – | – | – | inactive: 0.112 | – |
| TUBGCP5 (UniProt Q96RT8) | – | – | inactive: -0.017 | inactive: -0.081 | – | – | inactive: -0.203 | inactive: 0.07 | inactive: -0.025 | inactive: 0.137 | inactive: 0.001 | inactive: 0.031 | – | inactive: 0.001 | inactive: 0.016 | inactive: -0.024 | inactive: 0.022 | inactive: 0.031 | – | inactive: -0.107 |
| TTC26 | – | inactive: 0.116 | – | – | active: -0.598 | – | – | inactive: -0.139 | – | – | – | – | inactive: -0.088 | – | – | – | – | – | – | – |
| TTC17 isoform 2 (UniProt Q96AE7) | – | – | inactive: -0.105 | – | – | – | inactive: 0.035 | – | – | – | – | inactive: -0.06 | – | – | inactive: 0.122 | inactive: -0.229 | inactive: 0.185 | inactive: -0.06 | – | inactive: 0.042 |

Taken from above.
Under log2 fold change [7], TUSC2 (UniProt O75896) has the entry inactive: 0.002
Under log2 fold change [1], TUBB8B (UniProt A6NNZ2) has the entry inactive: -0.013
